Data on one molecule can be found in paper PMC6584639.

Results are given in words; binding and its absence hold for the method and conditions named. In cells and extracts the contact can be indirect. A yes stands for co-enrichment or nearness to the bait. Other partners may have been found. Tags and fused reporters may be left off the sequences shown.

The target in the assay is T1, KIF1C-BioID2-HA (full-length KIF1C) (human) (UniProt O43896).
T1 sequence: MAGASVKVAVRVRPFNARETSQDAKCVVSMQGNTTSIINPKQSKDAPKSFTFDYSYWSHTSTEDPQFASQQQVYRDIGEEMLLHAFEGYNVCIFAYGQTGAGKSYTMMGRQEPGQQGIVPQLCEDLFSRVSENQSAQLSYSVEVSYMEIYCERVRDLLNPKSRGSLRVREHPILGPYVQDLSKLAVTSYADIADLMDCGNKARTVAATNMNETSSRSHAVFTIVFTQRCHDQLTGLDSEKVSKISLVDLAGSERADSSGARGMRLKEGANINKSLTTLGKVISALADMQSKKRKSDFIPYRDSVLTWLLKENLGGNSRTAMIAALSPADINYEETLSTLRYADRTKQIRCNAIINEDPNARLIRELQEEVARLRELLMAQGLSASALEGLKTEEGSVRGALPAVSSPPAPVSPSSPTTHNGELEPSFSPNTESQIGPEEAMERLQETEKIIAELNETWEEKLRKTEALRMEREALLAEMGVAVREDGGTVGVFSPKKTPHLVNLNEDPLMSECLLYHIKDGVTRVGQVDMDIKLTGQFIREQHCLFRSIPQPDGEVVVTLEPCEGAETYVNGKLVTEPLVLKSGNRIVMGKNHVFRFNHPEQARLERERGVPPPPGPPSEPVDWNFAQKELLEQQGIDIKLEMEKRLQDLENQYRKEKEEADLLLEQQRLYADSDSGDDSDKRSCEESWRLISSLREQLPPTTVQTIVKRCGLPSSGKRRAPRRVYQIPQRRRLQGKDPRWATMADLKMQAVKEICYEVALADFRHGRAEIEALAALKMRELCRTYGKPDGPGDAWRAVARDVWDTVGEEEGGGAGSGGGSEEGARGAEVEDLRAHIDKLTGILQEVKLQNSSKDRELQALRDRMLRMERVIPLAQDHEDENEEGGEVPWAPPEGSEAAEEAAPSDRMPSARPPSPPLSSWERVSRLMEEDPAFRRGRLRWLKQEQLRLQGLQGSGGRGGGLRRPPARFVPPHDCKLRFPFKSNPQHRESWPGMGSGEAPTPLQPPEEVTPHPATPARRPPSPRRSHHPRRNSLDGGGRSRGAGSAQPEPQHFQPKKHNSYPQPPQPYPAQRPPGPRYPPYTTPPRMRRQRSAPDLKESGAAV
The assay is described as follows: proximity labelling; BioID: KIF1C-BioID2-HA or KIF1CΔS-BioID2-HA in RPE1 cells, 50 µM biotin for 12 h, streptavidin beads, mass spectrometry.

B1: Hook3 (endogenous, RPE1 cells) (protein, UniProt Q86VS8 1-718)
chain: MFSVESLERAELCESLLTWIQTFNVDAPCQTVEDLTNGVVMAQVLQKIDPAYFDENWLNRIKTEVGDNWRLKISNLKKILKGILDYNHEILGQQINDFTLPDVNLIGEHSDAAELGRMLQLILGCAVNCEQKQEYIQAIMMMEESVQHVVMTAIQELMSKESPVSAGNDAYVDLDRQLKKTTEELNEALSAKEEIAQRCHELDMQVAALQEEKSSLLAENQVLMERLNQSDSIEDPNSPAGRRHLQLQTQLEQLQEETFRLEAAKDDYRIRCEELEKEISELRQQNDELTTLADEAQSLKDEIDVLRHSSDKVSKLEGQVESYKKKLEDLGDLRRQVKLLEEKNTMYMQNTVSLEEELRKANAARSQLETYKRQVVELQNRLSEESKKADKLDFEYKRLKEKVDSLQKEKDRLRTERDSLKETIEELRCVQAQEGQLTTQGLMPLGSQESSDSLAAEIVTPEIREKLIRLQHENKMLKLNQEGSDNEKIALLQSLLDDANLRKNELETENRLVNQRLLEVQSQVEELQKSLQDQGSKAEDSVLLKKKLEEHLEKLHEANNELQKKRAIIEDLEPRFNNSSLKIEELQEALRKKEEEMKQMEERYKKYLEKAKSVIRTLDPKQNQGAAPEIQALKNQLQERDRLFHSLEKEYEKTKSQREMEEKYIVSAWYNMGMTLHKKAAEDRLASTGSGQSFLARQRQATSSRRSYPGHVQPATAR
Take B1: the binding entry is reported as “binds”.
